According to the supplement of paper PMC12595434, “Development of retinoid nuclear receptor pathway antagonists through targeting aldehyde dehydrogenase 1A3” (iScience, 2025):
The list shows a part of the results. The data scatter; read single values as rough.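 Tm was set to 64 °C where no melting was found, and many curves are irregular.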

Sequences of proteins named here, by UniProt entry; tags and fusion partners are left off. A change or cut given only in a name is not applied to a line headed by its entry.
UniProt Q8WVM7: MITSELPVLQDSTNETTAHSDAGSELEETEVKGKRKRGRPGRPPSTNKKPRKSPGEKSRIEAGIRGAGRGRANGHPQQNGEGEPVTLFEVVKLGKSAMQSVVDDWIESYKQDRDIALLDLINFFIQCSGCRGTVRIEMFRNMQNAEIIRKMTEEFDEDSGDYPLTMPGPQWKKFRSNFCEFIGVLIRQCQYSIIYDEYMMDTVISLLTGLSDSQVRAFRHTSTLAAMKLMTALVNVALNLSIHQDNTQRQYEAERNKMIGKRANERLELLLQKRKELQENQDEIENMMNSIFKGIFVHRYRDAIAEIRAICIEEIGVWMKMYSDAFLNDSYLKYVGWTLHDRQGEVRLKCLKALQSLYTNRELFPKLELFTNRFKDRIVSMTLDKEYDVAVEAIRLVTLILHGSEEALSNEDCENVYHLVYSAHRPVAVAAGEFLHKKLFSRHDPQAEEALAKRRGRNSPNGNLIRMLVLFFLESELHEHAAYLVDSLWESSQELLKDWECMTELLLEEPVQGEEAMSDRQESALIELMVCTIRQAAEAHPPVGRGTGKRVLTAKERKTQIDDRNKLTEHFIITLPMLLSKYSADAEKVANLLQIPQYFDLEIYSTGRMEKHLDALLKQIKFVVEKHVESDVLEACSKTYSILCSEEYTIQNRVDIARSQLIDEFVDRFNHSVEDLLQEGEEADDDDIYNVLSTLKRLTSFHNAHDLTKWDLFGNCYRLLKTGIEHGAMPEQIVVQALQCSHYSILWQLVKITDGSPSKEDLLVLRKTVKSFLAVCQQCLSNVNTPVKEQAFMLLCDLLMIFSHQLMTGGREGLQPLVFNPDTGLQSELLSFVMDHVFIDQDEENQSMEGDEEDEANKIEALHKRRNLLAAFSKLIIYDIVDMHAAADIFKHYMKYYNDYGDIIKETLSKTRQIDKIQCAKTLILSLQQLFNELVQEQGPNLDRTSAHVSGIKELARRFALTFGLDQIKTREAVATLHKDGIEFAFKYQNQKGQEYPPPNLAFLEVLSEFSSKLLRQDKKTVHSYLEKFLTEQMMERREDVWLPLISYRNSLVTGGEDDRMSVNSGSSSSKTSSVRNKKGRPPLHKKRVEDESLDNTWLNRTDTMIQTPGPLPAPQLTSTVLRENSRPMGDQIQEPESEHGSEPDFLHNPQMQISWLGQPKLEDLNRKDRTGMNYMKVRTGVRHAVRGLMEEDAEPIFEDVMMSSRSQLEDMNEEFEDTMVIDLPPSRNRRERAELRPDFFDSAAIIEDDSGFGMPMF
UniProt Q8NDI1: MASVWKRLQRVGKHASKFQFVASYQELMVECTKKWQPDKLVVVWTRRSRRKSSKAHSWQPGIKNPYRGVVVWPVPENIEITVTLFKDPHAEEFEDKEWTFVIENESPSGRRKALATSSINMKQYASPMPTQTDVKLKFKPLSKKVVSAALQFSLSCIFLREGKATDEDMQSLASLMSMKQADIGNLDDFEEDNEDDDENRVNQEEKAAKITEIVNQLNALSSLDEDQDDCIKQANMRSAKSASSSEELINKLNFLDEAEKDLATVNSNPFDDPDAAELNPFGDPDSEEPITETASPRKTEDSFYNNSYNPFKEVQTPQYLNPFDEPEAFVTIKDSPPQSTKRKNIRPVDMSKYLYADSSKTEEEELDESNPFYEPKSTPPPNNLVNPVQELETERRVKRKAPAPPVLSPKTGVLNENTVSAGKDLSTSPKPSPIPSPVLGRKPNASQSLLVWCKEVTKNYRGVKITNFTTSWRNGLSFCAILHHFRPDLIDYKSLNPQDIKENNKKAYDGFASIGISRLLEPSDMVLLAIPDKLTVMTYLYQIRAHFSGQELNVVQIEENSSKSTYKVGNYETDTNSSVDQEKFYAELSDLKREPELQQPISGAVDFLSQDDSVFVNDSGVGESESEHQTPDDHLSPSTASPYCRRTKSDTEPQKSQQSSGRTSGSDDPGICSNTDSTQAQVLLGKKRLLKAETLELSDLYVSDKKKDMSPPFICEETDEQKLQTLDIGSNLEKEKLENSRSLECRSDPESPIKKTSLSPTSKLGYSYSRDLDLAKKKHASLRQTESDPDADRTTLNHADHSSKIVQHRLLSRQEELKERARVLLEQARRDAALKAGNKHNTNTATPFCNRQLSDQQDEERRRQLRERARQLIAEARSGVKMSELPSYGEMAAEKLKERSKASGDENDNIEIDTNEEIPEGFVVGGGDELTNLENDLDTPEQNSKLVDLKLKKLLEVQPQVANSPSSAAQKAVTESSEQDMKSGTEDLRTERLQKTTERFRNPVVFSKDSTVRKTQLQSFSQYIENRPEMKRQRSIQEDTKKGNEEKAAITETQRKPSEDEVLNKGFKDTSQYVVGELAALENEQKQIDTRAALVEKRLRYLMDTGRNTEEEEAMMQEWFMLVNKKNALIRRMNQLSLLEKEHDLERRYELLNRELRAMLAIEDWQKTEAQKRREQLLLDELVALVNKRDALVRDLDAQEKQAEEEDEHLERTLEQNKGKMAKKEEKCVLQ
UniProt Q8TBX8: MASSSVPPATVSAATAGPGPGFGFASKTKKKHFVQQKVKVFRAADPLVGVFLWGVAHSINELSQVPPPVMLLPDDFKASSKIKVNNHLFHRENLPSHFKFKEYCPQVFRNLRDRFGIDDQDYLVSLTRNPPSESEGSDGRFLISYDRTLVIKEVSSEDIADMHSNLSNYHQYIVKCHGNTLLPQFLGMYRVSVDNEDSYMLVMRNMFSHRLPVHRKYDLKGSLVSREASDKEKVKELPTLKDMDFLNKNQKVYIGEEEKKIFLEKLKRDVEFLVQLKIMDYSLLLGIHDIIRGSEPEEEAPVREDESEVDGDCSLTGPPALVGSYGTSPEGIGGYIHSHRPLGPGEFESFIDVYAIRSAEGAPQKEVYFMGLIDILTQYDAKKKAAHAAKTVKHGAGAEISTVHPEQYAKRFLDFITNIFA
UniProt Q8N8Q9: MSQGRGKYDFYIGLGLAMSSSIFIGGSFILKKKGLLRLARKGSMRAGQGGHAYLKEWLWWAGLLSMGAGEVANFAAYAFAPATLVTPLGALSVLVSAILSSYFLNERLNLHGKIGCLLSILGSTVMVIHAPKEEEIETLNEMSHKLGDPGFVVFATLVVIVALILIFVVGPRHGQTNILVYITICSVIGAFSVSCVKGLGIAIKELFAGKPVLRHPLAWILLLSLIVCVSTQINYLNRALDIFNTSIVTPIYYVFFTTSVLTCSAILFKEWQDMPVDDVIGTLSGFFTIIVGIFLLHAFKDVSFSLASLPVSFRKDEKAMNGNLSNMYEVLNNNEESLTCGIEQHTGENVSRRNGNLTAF
UniProt Q8WVJ2: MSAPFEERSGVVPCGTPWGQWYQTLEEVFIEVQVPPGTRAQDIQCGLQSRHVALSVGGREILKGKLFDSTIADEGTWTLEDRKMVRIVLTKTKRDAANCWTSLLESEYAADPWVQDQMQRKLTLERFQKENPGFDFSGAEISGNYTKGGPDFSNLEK
UniProt Q8NCD3, whole entry: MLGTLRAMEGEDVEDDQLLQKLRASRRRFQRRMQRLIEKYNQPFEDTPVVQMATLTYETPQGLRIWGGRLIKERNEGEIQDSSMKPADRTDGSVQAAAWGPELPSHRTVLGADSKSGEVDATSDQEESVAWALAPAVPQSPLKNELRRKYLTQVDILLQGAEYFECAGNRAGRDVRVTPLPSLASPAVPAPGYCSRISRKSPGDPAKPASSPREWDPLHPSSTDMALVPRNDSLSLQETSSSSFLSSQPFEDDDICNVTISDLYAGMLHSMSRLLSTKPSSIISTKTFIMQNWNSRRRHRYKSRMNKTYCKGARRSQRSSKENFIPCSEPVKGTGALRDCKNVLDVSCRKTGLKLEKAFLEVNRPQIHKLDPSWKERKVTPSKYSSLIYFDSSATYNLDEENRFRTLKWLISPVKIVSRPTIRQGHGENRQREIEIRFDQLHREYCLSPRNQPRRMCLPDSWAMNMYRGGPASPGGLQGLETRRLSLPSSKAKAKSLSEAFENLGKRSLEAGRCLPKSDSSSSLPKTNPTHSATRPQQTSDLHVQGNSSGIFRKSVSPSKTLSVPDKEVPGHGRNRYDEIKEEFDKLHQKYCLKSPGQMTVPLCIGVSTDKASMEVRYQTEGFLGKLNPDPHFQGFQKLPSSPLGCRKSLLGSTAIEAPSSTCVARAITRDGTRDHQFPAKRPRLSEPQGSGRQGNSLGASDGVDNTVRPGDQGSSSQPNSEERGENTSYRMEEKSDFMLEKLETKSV
UniProt Q8WUF5: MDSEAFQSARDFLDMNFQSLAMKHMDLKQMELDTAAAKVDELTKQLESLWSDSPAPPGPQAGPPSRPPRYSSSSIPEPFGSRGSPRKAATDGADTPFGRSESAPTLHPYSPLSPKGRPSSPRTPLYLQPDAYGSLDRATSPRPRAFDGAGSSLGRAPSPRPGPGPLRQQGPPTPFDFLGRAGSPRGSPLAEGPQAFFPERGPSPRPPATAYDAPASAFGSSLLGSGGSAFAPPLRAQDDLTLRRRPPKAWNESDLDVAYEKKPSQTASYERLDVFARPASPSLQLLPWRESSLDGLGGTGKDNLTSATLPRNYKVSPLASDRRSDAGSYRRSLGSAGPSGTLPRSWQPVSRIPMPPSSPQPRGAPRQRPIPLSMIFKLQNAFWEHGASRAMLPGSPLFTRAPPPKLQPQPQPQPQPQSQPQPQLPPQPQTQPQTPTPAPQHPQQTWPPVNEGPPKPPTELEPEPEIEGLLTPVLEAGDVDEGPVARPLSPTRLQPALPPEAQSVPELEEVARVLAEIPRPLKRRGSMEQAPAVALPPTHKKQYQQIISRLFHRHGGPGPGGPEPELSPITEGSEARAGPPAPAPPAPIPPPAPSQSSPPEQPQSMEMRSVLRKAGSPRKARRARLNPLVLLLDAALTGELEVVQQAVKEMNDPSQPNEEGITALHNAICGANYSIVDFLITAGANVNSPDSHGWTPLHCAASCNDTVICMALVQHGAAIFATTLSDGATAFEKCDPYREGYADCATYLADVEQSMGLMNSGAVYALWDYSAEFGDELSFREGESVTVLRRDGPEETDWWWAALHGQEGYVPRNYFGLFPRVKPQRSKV
UniProt Q8TBF4: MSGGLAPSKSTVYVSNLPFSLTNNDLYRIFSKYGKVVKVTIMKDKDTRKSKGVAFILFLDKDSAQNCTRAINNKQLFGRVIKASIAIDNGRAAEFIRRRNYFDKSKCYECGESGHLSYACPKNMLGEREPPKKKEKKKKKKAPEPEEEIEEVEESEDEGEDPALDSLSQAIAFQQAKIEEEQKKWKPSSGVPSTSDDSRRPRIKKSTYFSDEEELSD
UniProt Q8WUY1: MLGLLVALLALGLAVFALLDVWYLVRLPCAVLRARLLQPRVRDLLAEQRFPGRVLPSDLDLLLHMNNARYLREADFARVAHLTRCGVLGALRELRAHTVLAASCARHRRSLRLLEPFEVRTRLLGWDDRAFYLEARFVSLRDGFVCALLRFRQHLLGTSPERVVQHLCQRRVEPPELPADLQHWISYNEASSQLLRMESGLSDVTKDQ
UniProt Q8TC12: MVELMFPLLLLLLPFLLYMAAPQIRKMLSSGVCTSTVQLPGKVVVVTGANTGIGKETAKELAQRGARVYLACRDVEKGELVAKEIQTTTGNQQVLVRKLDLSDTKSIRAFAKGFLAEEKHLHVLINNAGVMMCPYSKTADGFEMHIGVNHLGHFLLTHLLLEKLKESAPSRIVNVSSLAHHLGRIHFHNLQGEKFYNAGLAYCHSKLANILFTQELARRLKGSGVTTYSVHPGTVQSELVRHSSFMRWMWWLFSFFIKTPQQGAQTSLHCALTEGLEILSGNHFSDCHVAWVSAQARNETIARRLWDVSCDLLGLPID
UniProt Q8WVC6: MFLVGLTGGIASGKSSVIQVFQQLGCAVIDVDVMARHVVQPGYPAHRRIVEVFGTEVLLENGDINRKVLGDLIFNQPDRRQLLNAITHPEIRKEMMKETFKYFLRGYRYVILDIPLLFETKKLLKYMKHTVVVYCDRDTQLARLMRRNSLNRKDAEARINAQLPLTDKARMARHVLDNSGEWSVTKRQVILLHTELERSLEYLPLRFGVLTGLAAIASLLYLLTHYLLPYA
UniProt Q8WUY8: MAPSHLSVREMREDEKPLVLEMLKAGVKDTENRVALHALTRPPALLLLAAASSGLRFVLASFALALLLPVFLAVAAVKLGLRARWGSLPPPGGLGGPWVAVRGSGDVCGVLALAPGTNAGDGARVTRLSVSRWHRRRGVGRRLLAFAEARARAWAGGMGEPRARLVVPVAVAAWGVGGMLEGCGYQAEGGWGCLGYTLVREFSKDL
UniProt Q8NBI6: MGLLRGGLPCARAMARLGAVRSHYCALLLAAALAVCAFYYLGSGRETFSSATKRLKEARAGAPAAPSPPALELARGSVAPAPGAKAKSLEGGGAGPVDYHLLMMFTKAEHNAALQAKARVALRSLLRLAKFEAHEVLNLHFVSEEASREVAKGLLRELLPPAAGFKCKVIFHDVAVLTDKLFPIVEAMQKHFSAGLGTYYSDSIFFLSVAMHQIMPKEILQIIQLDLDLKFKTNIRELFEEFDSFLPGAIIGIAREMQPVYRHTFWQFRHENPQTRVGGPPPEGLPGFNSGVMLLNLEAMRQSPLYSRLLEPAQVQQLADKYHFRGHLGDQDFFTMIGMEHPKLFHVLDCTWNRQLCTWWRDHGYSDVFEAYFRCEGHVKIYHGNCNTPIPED

Compound: CCc1cnccc1C(=O)Nc1cc2c(cc1F)NC(=O)CC2
Assay: melting temperature shift (DMSO Tm minus MBE1-treated Tm) in cellular thermal proteome profiling; higher = less thermal stabilization by MBE1 (negative = stabilized by MBE1)
Conditions: A375

Question: What does the source list for UniProt Q8NI77?
Answer: melting temperature shift (MBE1 concentration: 100 nM): -1.94 °C; melting temperature shift (MBE1 concentration: 1 uM): -0.718 °C

Question: Which melting temperature shift (MBE1 concentration: 100 nM) does the source give for STAG1 (UniProt Q8WVM7) here?
Answer: 0.189 °C

Question: What about the melting temperature shift (MBE1 concentration: 1 uM) of the same target?
Answer: 0.275 °C

Question: With EHBP1 (UniProt Q8NDI1) as the target, how does the melting temperature shift (MBE1 concentration: 100 nM) read?
Answer: -1.19 °C

Question: What about the melting temperature shift (MBE1 concentration: 1 uM) of the same target?
Answer: -0.88 °C

Question: For PIP4K2C (UniProt Q8TBX8), which melting temperature shift (MBE1 concentration: 100 nM) is on record?
Answer: -0.198 °C

Question: What about the melting temperature shift (MBE1 concentration: 1 uM) of the same target?
Answer: -0.47 °C

Question: How did the melting temperature shift (MBE1 concentration: 100 nM) turn out when NIPA2 (UniProt Q8N8Q9) was run?
Answer: -0.754 °C

Question: What about the melting temperature shift (MBE1 concentration: 1 uM) of the same target?
Answer: 0.124 °C

Question: Which melting temperature shift (MBE1 concentration: 100 nM) does the source give for UniProt Q8NHM5 here?
Answer: -4.08 °C

Question: And the melting temperature shift (MBE1 concentration: 1 uM)?
Answer: -3.66 °C

Question: Which results are given for NUDCD2 (UniProt Q8WVJ2)?
Answer: melting temperature shift (MBE1 concentration: 100 nM): -0.786 °C; melting temperature shift (MBE1 concentration: 1 uM): -0.136 °C

Question: For UniProt Q8NCD3, which melting temperature shift (MBE1 concentration: 100 nM) is on record?
Answer: -2.69 °C

Question: What about the melting temperature shift (MBE1 concentration: 1 uM) of the same target?
Answer: -0.365 °C

Question: For PPP1R13L (UniProt Q8WUF5), which melting temperature shift (MBE1 concentration: 100 nM) is on record?
Answer: -1.35 °C

Question: What about the melting temperature shift (MBE1 concentration: 1 uM) of the same target?
Answer: -1.56 °C

Question: What does the source list for ZCRB1 (UniProt Q8TBF4)?
Answer: melting temperature shift (MBE1 concentration: 100 nM): -2.15 °C; melting temperature shift (MBE1 concentration: 1 uM): -0.0671 °C

Question: With THEM6 (UniProt Q8WUY1) as the target, how does the melting temperature shift (MBE1 concentration: 100 nM) read?
Answer: 0.765 °C

Question: What about the melting temperature shift (MBE1 concentration: 1 uM) of the same target?
Answer: 1.36 °C

Question: For RDH11 (UniProt Q8TC12), which melting temperature shift (MBE1 concentration: 100 nM) is on record?
Answer: -0.605 °C

Question: What about the melting temperature shift (MBE1 concentration: 1 uM) of the same target?
Answer: -0.458 °C

Question: For ATAD1 (UniProt Q8NBU5), which melting temperature shift (MBE1 concentration: 100 nM) is on record?
Answer: -0.159 °C

Question: What about the melting temperature shift (MBE1 concentration: 1 uM) of the same target?
Answer: -0.342 °C

Question: What does the source list for TMEM87A (UniProt Q8NBN3)?
Answer: melting temperature shift (MBE1 concentration: 100 nM): -2.31 °C; melting temperature shift (MBE1 concentration: 1 uM): -2.92 °C

Question: How did the melting temperature shift (MBE1 concentration: 100 nM) turn out when MLKL (UniProt Q8NB16) was run?
Answer: 0.605 °C

Question: What about the melting temperature shift (MBE1 concentration: 1 uM) of the same target?
Answer: -0.0366 °C

Question: UniProt Q8TF72 was tested. Which melting temperature shift (MBE1 concentration: 100 nM) did it give?
Answer: -4.67 °C

Question: And the melting temperature shift (MBE1 concentration: 1 uM)?
Answer: -1.81 °C

Question: For DCAKD (UniProt Q8WVC6), which melting temperature shift (MBE1 concentration: 100 nM) is on record?
Answer: -0.216 °C

Question: And the melting temperature shift (MBE1 concentration: 1 uM)?
Answer: 0.108 °C

Question: With UniProt Q8WUY8 as the target, how does the melting temperature shift (MBE1 concentration: 100 nM) read?
Answer: 0.891 °C

Question: And the melting temperature shift (MBE1 concentration: 1 uM)?
Answer: 0.837 °C

Question: Which melting temperature shift (MBE1 concentration: 100 nM) does the source give for ELP5 (UniProt Q8TE02) here?
Answer: -3.88 °C

Question: What about the melting temperature shift (MBE1 concentration: 1 uM) of the same target?
Answer: -4.4 °C

Question: Which melting temperature shift (MBE1 concentration: 100 nM) does the source give for UniProt Q8TCU4 here?
Answer: 2.01 °C

Question: What about the melting temperature shift (MBE1 concentration: 1 uM) of the same target?
Answer: 4.1 °C

Question: TXNDC5 (UniProt Q8NBS9) was tested. Which melting temperature shift (MBE1 concentration: 100 nM) did it give?
Answer: -1.17 °C

Question: What about the melting temperature shift (MBE1 concentration: 1 uM) of the same target?
Answer: -0.293 °C

Question: With XXYLT1 (UniProt Q8NBI6) as the target, how does the melting temperature shift (MBE1 concentration: 100 nM) read?
Answer: -0.825 °C

Question: And the melting temperature shift (MBE1 concentration: 1 uM)?
Answer: 0.765 °C
